# The other results are listed elsewhere or left out. These are further read-outs of the screen, such as a control signal, another cell line or another target. No call is given for them. Most of these compounds were active or inconclusive in the main read-out, so they are no random draw. Potencies come from curve fits of mixed quality, noted in brackets.
# Assay: qHTS Assay for Lipid Storage Modulators in Drosophila S3 Cells;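 as to cell number change: cells counted by Cell Tracker Red CMTPX staining in the red channel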
# Settings: BODIPY lipid droplet fluorescence, 18-24 h; for cell number change: measured here: cell count max response, cells fed with added oleic acid
# Summary of the method: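 Laser-scanning cytometry quantifies lipid droplet accumulation (500–530 nm total intensity; droplet/cell object ratio) in oleic acid-fed (400 uM added) Drosophila S3 cells treated with a concentration series. 20 uM Triacsin C defined 100% inhibition.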
# [1] = measured here: lipid fluorescence (Fed channel) AC50, cells fed with added oleic acid
# [2] = measured here: cell number channel AC50, cells fed with added oleic acid
Compound,AC50 [1],cell number change [%],AC50 [2]
Cc1ccc(Cc2nnc(SCC(=O)Nc3c(C)cccc3C)[nH]c2=O)cc1,"29.1 µM [rising, single point]",,
NS(=O)(=O)c1ccc(NC(=S)N2CCN(Cc3ccc(Cl)c(Cl)c3)CC2)cc1,"32.6 µM [falling, partial curve, poor fit]",-13.3,
O=C(NCc1cccnc1)c1ccc(S(=O)(=O)N2CCCCCC2)cc1,,65.8,"29.1 µM [rising, single point]"
Cc1cccc(NC(=O)COc2cccc3c2CCN(C)C3=O)c1,"0.82 µM [rising, full curve]",-22,
COc1c(Br)cc(Br)cc1/C=N/n1c(C)nnc1C,,22.7,"0.82 µM [rising, full curve, poor fit]"
CCOC(=O)C(=Nc1ccc(Cl)cc1)NO,"1.3 µM [falling, full curve]",3,
N#CCC(=O)Nc1ccc(C(=O)OCC(=O)Nc2ccccc2Sc2ccccc2)cc1,"0.00461 µM [rising, full curve, poor fit]",65,"29.1 µM [rising, single point]"
CC(C(=O)Nc1ccc2c(c1)OCO2)N1CCC(N2CCCCC2)CC1 (stereo not given),"4.11 µM [rising, full curve]",17.9,
CC(=O)Nc1c(I)c(C(=O)N[C@H]2C(O)O[C@H](CO)[C@@H](O)[C@@H]2O)c(I)c(N(C)C(C)=O)c1I (stereo not given in full),"18.4 µM [rising, single point]",,
Cc1ccccc1C1=NC(C(F)(F)F)(C(F)(F)F)c2c(n(C)c(=O)n(C)c2=O)N1,"3.66 µM [rising, full curve]",20.5,
CCCn1c(=N)n(CC(=O)c2ccc(Cl)c(Cl)c2)c2ccccc21,"10.3 µM [falling, partial curve]",16.7,
COc1ccc(CCCc2nnc(SCC(=O)NN)o2)c(C)c1,"4.11 µM [rising, full curve]",18.7,
Cc1ccc(C)c(NC2=NS(=O)(=O)c3ccccc32)c1,,3.24,
COCCn1c(C)cc(C(=O)COC(=O)c2ccc[nH]c2=O)c1C,,-5.34,
Cc1[nH][nH]c(=O)c1C(c1c(C)[nH][nH]c1=O)c1cn(Cc2ccccc2Cl)c2ccccc12,"0.206 µM [rising, full curve, poor fit]",1.85,
c1ccc(OCCOc2ncnc3sccc23)cc1,"0.103 µM [falling, full curve, poor fit]",,
CN(C)S(=O)(=O)Oc1cccc(C(=O)Nc2ccc(Cl)cc2)c1,"11.6 µM [falling, single point]",15.9,

# 2 records picked at random from the list so far:
Compound,AC50 [1],cell number change [%],AC50 [2]
Cc1cccc(NC(=O)COc2cccc3c2CCN(C)C3=O)c1,"0.82 µM [rising, full curve]",-22,
Cc1ccc(Cc2nnc(SCC(=O)Nc3c(C)cccc3C)[nH]c2=O)cc1,"29.1 µM [rising, single point]",,

# Reference: PubChem BioAssay AID2685 (National Center for Advancing Translational Sciences (NCATS), 2010)
